Some peptides are written in HELM: one residue between dots, names in brackets for other building blocks, links after the first $. Starred links: 1 amine or outer side, 2 acyl side, 3 side chain; linkers in the order of their positions; H or OH if unused. Non-standard residues stand in square brackets, D forms with d. Groups on a side chain read outwards from the residue. ξ: configuration not given here. *: point of attachment. Oic(3aξ,7aξ) = O=C(O)[C@@H]1CC2CCCCC2N1; X1 = N=C(N)NCCCC[C@H](N)CN*; X3 = N=C(N)NCCC[C@H](N)CN*; X2 = N=C(N)NCC[C@H](N)CN*; Orn = NCCC[C@H](N)C(=O)O; Dab = NCC[C@H](N)C(=O)O; CO = O=C([*:1])[*:2]

This series can be described thus: general procedure: Fmoc solid-phase peptide synthesis; Fmoc-Arg(Pbf) Wang resin, 0.32 mmol/g; HCTU/DIPEA. The settings on record: whole synthesis, scale of the general procedure 0.3 g resin, TFA.
The substance “PEPTIDE1{[DapU].[Dab].[Oic].R}|PEPTIDE2{[ArgU]}$PEPTIDE1,PEPTIDE2,1:R3-1:R2$$$V2.0” had an isolated yield of 55%.

On to “PEPTIDE1{[DabU].[Dab].[Oic].R}|PEPTIDE2{[hArg]}$PEPTIDE1,PEPTIDE2,1:R3-1:R2$$$V2.0”, for which the isolated yield came to 59%.

“PEPTIDE1{[OrnU].[Dab].[Oic].R}|PEPTIDE2{R}$PEPTIDE1,PEPTIDE2,1:R3-1:R2$$$V2.0” had an isolated yield of 63%.

In the case of H-K([CO-X2])[Dab][Oic(3aξ,7aξ)]R-OH, the isolated yield was determined as 65%.

“PEPTIDE1{[LysU].[Dab].[Oic].R}|PEPTIDE2{[gDab]}$PEPTIDE1,PEPTIDE2,1:R3-1:R2$$$V2.0” yielded an isolated yield of 51%.

With H-[Orn]([CO-X3])[Dab][Oic(3aξ,7aξ)]R-OH, the isolated yield was 55%.

In turn, “PEPTIDE1{[DabU].[Dab].[Oic].R}|PEPTIDE2{[gDabU]}$PEPTIDE1,PEPTIDE2,1:R3-1:R2$$$V2.0” showed an isolated yield of 63%.

“PEPTIDE1{[OrnU].[Dab].[Oic].R}|PEPTIDE2{[gDapU]}$PEPTIDE1,PEPTIDE2,1:R3-1:R2$$$V2.0” came in with an isolated yield of 51%.

As to “H-[Dab]([CO-X1])[Dab][Oic(3aξ,7aξ)]R-OH (SMILES N=C(N)NCCCC[C@H](N)CNC(=O)NCC[C@H](N)C(=O)N[C@@H](CCN)C(=O)N1C2CCCCC2C[C@H]1C(=O)N[C@@H](CCCNC(=N)N)C(=O)O)”, the isolated yield is 59%.

The values above are taken from publication PMC7793531 (International Journal of Molecular Sciences, 2020).
